# Assay results as given in PubChem BioAssay AID540256 (National Center for Advancing Translational Sciences (NCATS), 2011).
# The campaign covered roughly 300,000 compounds. About 3,700 (1.2%) were called active. Inconclusive means that the source gave no clear call. Such entries were picked first, then a sample of the others. Calls come from the whole dose curve; tested in HEK293 cells. Potencies of inconclusive entries are doubtful fits and often do not repeat.
# Assay: qHTS for Inhibitors of binding or entry into cells for Lassa Virus; note: nearly all actives have a fitted effect of over 50% in size
# Conditions: Lassa virus pseudotype entry inhibition, cell reporter; series mostly up to 37.9 µM
# Potency is the fitted concentration of half-maximal effect.
row,SMILES,Potency
1,C=CCNC(=O)Nc1ccc(F)cc1F,"inconclusive: 12.6 µM [activator, partial curve, poor fit]"
2,CCN(CC)CCNC(=O)c1ccc2c(c1)ncn2C1CCCCC1,inactive
3,O=c1/c(=C/c2ccc([N+](=O)[O-])cc2)sc2n1CCCN=2,inactive
4,Cc1cccc(NC(=O)c2ccccc2NC(=O)Cc2ccccc2)c1C,"inconclusive: 2.31 µM [inhibitor, partial curve, poor fit]"
5,CCOc1ccccc1NS(=O)(=O)c1c(C(=O)OC)sc2cccc(F)c12,inactive
6,Cc1cccc(N2CCN(C(=O)c3cn(C)c(=O)c4c3c3ccccc3n4C)CC2)c1C,active: 6.51 µM
7,Cc1ccc(S(=O)(=O)NC(CC(=O)O)c2ccco2)cc1 (stereo not given),inactive
8,O/N=C(/CCc1ccccc1)c1ccc2c(c1)OCCO2,"inconclusive: 2.82 µM [inhibitor, partial curve, poor fit]"
9,O=C(c1[nH]nc2c1CCc1ccccc1-2)N1CCN(Cc2ccc3c(c2)OCO3)CC1,"inconclusive: 10 µM [inhibitor, partial curve, poor fit]"
10,CCn1cc(S(=O)(=O)Nc2ccc(Cl)cc2F)cn1,"inconclusive: 8.91 µM [activator, partial curve, poor fit]"
11,CCCCCn1c(=O)[nH]c2cc(C(=O)NCc3ccc4c(c3)OCO4)ccc2c1=O,"inconclusive: 0.058 µM [inhibitor, partial curve, poor fit]"
12,Cc1cc(N2CCN(C)CC2)nc2ccc(NC(=O)Nc3ccccc3Cl)cc12,"inconclusive: 35.5 µM [inhibitor, single point]"
13,Nc1ccc(SCC(=O)Nc2cccc([N+](=O)[O-])c2)cc1,"inconclusive: 5.01 µM [inhibitor, single point]"
14,COc1ccc(-c2cc(C(=O)N(C)Cc3ccccc3F)c3ccccc3n2)cc1OC,"inconclusive: 7.08 µM [inhibitor, partial curve, poor fit]"
15,C/C(=N\NC(=O)c1ccc(Cn2cc(Br)cn2)o1)c1cccc(NC(=O)C(C)C)c1,"inconclusive: 17.8 µM [inhibitor, partial curve, poor fit]"
16,CCn1cc(C(=O)NCc2ccccc2)c(=O)c2cc(S(=O)(=O)N3CCOCC3)ccc21,"inconclusive: 7.94 µM [inhibitor, single point]"
17,CCCc1ccc(-c2cc(C(=O)NN3CCOCC3)c3ccccc3n2)cc1,inactive
18,COC(=O)C1=C(C)NC(=O)NC1c1cn(-c2ccccc2)nc1-c1ccc(OC)c(Cl)c1 (stereo not given),inactive
19,O=C(Cn1ncc2c3ccccc3n(Cc3ccccc3)c2c1=O)NCCCN1CCCC1=O,inactive
20,O=C(OCc1cn([C@@H]2CN(CC3CCCCC3)[C@@H](c3ccccc3)C[C@@H]2O)nn1)c1ccccc1,"inconclusive: 1.99 µM [inhibitor, full curve, poor fit]"
21,CCc1ccc(C2N3CC4(C)CN2CC(c2ccccc2)(C3)C4=O)cc1 (stereo not given),inactive
22,Cc1ccc(NC(=O)c2ccc3c(=O)n4nc(Nc5ccccc5C)sc4nc3c2)cc1C,inactive
23,O=C(COC(=O)c1ccccc1Nc1ccc(SC(F)F)cc1)NCc1ccco1,inactive

row,SMILES,Potency
1,Cc1c2cnn(CC(=O)N3CCCCC3)c(=O)c2c(C)n1Cc1ccc(Cl)cc1,"inconclusive: 2.82 µM [inhibitor, partial curve, poor fit]"
2,O=C(/C=C/c1ccccc1)c1ccc2c3c(cccc13)CC2,"inconclusive: 35.5 µM [inhibitor, single point]"
3,COc1ccc(NC(=O)c2cccs2)cn1,"inconclusive: 35.5 µM [activator, single point]"
4,COc1ccccc1OCCn1cc(C(=O)O)c2ccccc21,"inconclusive: 15.8 µM [activator, partial curve, poor fit]"
5,CCN(CC)c1ccc(N=Nc2ncn[nH]2)cc1,"inconclusive: 3.98 µM [inhibitor, single point]"
6,O=C(Nc1sc2c(c1-c1nc3ccccc3[nH]1)CCCC2)C1CCCC1,inactive
7,O=C(COC(=O)C12CC3CC(CC(Br)(C3)C1)C2)Nc1ccc2[nH]c(=O)[nH]c2c1,"inconclusive: 1.26 µM [inhibitor, full curve]"
8,COc1cccc2c(Cl)c(CC=C(Cl)Cl)c(C)nc12,inactive
9,CC1CN(C(=O)c2ccc(COc3ccccc3Br)o2)CC(C)O1 (stereo not given),inactive
10,N[C@@H](CCCC(=O)O)C(=O)O,"inconclusive: 29.1 µM [inhibitor, single point]"
11,Cc1ccc(NC(=O)c2ccc(OC(F)(F)F)cc2)cc1S(=O)(=O)N(C)C,"inconclusive: 11.2 µM [inhibitor, partial curve, poor fit]"
12,COC(=O)c1sc(-c2ccccc2)cc1NC(=O)C1CC1,inactive
13,O=C(Nc1ccc(F)cc1)c1cccc(N2CCCS2(=O)=O)c1,"inconclusive: 6.31 µM [activator, full curve, poor fit]"
14,COC(=O)c1sccc1NC(=S)Nc1ccc(F)cc1,inactive
15,Cc1cccc(NC(=O)/C=C/c2ccc([N+](=O)[O-])s2)c1,"inconclusive: 5.01 µM [inhibitor, partial curve, poor fit]"
16,COc1ccc(CN(C)C(C)C(=O)NC2CCCc3ccccc32)cc1 (stereo not given),"inconclusive: 35.5 µM [inhibitor, single point]"
17,NC(=O)c1ccc(OCC(=O)N2CCNC2=O)cc1,"inconclusive: 12.6 µM [activator, single point]"
18,CC(NC(=O)Cc1ccc(NC(=O)N2CCCCc3ccccc32)cc1)c1ccccc1 (stereo not given),"inconclusive: 3.16 µM [inhibitor, full curve]"
19,CC1CCN(c2ccc3nnc(CCC(=O)N4CCCCC4)n3n2)CC1,"inconclusive: 17.8 µM [inhibitor, single point]"
20,O=[N+]([O-])c1nn(-c2ccc3c(c2)OCCO3)n(O)c1=NC1CCCCCC1,inactive
21,c1nc(NCC2(N3CCOCC3)CCCCC2)c2ccsc2n1,"inconclusive: 5.8 µM [inhibitor, partial curve, poor fit]"
22,Cc1ccc(NS(=O)(=O)c2cccc(C(=O)NCCc3c[nH]c4ccccc34)c2)c(C)c1,"inconclusive: 4.47 µM [inhibitor, single point]"

# As entered above.
# Potency, CC(NC(=O)Cc1ccc(NC(=O)N2CCCCc3ccccc32)cc1)c1ccccc1 (stereo not given) reads inconclusive: 3.16 µM [inhibitor, full curve]
# Potency, O=C(Nc1ccc(F)cc1)c1cccc(N2CCCS2(=O)=O)c1 reads inconclusive: 6.31 µM [activator, full curve, poor fit]
